Results: patent publication US20040022767A1 (Genentech, published 2004)
Results are given in words; binding and its absence hold for the method and conditions named. Some entries that bind do so weakly or less than the wild type.

Sequences of proteins named here, by UniProt entry; tags and fusion partners are left off. A change or cut given only in a name is not applied to a line headed by its entry.
UniProt P29320: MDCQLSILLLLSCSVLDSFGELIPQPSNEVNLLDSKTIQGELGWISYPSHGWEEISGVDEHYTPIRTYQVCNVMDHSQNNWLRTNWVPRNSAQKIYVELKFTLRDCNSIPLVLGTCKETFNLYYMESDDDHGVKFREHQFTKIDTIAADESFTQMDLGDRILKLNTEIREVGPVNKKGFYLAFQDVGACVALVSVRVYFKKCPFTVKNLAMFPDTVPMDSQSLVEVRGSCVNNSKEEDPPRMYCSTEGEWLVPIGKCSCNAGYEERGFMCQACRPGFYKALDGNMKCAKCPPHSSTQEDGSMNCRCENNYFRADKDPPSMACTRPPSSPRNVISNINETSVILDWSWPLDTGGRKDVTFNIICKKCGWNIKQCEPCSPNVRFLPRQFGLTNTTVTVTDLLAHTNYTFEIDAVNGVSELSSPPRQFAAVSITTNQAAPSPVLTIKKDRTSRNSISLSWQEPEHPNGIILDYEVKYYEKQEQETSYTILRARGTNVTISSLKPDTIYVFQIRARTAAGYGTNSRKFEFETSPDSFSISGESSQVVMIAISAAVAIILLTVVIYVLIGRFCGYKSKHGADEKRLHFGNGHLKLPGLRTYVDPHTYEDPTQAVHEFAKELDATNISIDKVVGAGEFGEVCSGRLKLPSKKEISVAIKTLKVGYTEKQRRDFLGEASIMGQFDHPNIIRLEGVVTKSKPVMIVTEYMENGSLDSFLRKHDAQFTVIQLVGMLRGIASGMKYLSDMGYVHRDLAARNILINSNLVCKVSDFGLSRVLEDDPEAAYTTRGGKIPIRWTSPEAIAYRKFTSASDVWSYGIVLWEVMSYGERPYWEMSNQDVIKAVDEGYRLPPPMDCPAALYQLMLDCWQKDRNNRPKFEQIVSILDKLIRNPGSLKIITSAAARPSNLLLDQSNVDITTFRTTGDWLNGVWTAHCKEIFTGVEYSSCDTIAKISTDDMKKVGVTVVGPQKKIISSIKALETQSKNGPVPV
UniProt P09759: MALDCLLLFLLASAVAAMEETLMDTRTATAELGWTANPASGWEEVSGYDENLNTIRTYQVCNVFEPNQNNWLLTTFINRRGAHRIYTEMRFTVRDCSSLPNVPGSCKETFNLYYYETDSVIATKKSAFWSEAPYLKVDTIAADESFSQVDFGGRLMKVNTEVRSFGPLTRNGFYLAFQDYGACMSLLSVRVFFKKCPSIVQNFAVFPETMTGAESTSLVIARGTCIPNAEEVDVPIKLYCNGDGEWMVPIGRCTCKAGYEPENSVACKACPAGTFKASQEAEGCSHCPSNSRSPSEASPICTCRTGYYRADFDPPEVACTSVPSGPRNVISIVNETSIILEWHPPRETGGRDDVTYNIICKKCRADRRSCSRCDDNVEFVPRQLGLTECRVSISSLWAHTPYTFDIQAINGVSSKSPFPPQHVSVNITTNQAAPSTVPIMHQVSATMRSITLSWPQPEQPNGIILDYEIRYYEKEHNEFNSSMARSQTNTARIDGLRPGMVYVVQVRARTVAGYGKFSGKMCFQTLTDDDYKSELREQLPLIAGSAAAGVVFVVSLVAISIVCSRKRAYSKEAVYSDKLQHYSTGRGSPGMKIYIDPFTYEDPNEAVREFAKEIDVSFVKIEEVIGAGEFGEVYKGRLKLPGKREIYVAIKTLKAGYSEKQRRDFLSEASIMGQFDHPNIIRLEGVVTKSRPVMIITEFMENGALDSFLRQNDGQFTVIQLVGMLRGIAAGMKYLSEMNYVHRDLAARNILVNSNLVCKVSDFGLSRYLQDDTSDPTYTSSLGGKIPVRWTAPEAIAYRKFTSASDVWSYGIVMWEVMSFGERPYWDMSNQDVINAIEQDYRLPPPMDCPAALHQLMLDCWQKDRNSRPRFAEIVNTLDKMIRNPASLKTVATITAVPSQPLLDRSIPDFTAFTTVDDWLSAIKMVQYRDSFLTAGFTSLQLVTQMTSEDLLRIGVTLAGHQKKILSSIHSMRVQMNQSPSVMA

Tests used:
[1] = target: B61 protein expressed on transfected CV-1/EBNA-1 cells (human) (UniProt P20827); test: indirect Scatchard analysis on transfected CV-1/EBNA-1 cells
[2] = target: T1, hek-L protein designated A2, expressed on transfected CV-1/EBNA-1 cells (UniProt P52797); test: as above
T1 sequence (looked up): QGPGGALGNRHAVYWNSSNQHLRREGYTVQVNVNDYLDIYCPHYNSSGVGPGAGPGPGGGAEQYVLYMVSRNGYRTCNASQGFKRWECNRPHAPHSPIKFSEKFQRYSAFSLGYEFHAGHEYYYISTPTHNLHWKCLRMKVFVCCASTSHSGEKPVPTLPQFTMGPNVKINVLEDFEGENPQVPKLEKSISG

[3] = target: T2, hek-L protein designated C6, expressed on transfected CV-1/EBNA-1 cells (UniProt P52798); test: as above
T2 sequence (looked up): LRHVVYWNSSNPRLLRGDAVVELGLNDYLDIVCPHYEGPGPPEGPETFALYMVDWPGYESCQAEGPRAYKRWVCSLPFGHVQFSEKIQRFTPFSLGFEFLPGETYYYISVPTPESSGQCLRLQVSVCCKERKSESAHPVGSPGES

[4] = target: T3, human elk ligand (elk-L), clone E7, expressed on transfected CV-1/EBNA-1 cells (human) (UniProt P98172); test: as above
T3 sequence: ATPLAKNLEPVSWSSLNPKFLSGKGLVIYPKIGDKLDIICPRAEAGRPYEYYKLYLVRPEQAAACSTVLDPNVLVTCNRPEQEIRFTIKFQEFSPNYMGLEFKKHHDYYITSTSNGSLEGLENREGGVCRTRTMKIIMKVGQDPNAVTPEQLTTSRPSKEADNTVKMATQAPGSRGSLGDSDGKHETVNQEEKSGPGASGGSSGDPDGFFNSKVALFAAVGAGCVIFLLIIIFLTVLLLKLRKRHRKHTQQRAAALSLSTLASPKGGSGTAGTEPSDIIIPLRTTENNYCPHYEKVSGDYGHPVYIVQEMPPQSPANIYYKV

[5] = target: T3, human elk ligand (elk-L), clone E7, expressed on transfected CV-1/EBNA-1 cells (human); test: slide autoradiography; elk/Fc on transfected CV-1/EBNA-1 cells, detected with 125I-mouse anti-human Fc antibody
[6] = target: T3, human elk ligand (elk-L), clone E7, expressed on transfected CV-1/EBNA-1 cells (human); test: indirect Scatchard analysis; elk/Fc titrated on transfected CV-1/EBNA-1 cells, detected with 125I-mouse anti-human IgG

Measured: binding

soluble hek/Fc fusion protein (from UniProt P29320 21-541; P01857 99-330)
binds: [1] | [2] | [3] | [4]

soluble rat elk/Fc fusion protein (from UniProt P09759 18-540; P01857 99-330)
not listed: [4]
binds: all other assays above
